Data reported in PubChem BioAssay AID1671190 (National Center for Advancing Translational Sciences (NCATS), 2021).
In all, about 580,000 compounds went through this assay and about 6,100 (1.1%) were called active. Inconclusive results, whose numbers are uncertain, are shown with a selection of clear calls. The call rests on the fitted dose curve; in most records, active means well fitted inhibition curve with a large enough effect; inconclusive means small, poorly fitted or top-dose-only effect, or another doubt; inactive means no such curve, though single readings can be large or run the other way. Potencies of inconclusive entries are doubtful fits and often do not repeat.

Amino acid sequences for entries named in this document (tags omitted). A change or cut given only in a name is not applied to a line headed by its entry.
UniProt P18054: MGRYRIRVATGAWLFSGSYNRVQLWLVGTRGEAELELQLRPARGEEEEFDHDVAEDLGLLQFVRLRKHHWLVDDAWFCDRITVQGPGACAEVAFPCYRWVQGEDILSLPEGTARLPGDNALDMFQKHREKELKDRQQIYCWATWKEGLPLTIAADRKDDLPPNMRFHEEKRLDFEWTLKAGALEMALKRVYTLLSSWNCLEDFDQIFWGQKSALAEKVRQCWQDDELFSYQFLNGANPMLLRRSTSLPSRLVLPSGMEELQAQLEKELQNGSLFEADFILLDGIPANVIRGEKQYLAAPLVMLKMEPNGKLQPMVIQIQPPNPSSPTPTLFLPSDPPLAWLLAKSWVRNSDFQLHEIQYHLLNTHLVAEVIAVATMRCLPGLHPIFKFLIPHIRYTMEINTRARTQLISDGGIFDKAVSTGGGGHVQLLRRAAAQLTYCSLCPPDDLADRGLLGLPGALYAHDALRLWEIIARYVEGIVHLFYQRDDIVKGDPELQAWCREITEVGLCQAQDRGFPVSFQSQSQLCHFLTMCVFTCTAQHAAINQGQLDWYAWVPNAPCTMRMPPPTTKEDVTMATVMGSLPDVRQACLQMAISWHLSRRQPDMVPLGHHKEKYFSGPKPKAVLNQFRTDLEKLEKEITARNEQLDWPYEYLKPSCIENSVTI

target: Polyunsaturated fatty acid lipoxygenase ALOX12 (Homo sapiens) (UniProt P18054); assay: Primary qHTS assay for inhibitors of human arachidonate 12S-lipoxygenase (ALOX12): Round 2; details: purified 12hLO, xylenol orange hydroperoxide absorbance; series mostly up to 108 µM
How it was run: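 Purified human 12hLO (150 nM final) in 25 mM Hepes, 0.01% Triton X-100, pH 7.0 was preincubated 15 min at room temperature with compound. Then 40 uM arachidonic acid was added, 30 min. Hydroperoxide was read by Fe-XO absorbance ratio 573/405 nm.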
Potency means the concentration at half of the fitted maximal effect.

| Structure (SMILES) | Potency |
| --- | --- |
| CCN(CC)C(=O)c1ccc2c(=O)n(Cc3cccc(Br)c3)c(=S)[nH]c2c1 | inactive |
| CCn1c(Cn2nnc(-c3ccccc3)n2)nnc1SCC(=O)N1CCOCC1 | inactive |
| Cc1ccc(C(=O)N2CCN(c3ccc(NC(=O)c4ccc5c(c4)OCCO5)cc3)CC2)cc1 | inactive |
| CCOc1ccc2nc(S(=O)(=O)NC(=O)C3(C)CCN3C(=O)c3cccc(F)c3)sc2c1 (stereo not given) | inconclusive: 2.82 µM [inhibitor, full curve, poor fit] |
| O=C(c1ccc(F)cc1)N1CCCC(c2nn(-c3ccc(Cl)cc3)c(=O)[nH]2)C1 (stereo not given) | inconclusive: 56.2 µM [inhibitor, partial curve, poor fit] |
| N#CCCn1c(O)c(N=NC(=O)CNC(=O)c2cccs2)c2ccccc21 | inconclusive: 0.316 µM [inhibitor, full curve, poor fit] |
| Cc1ccccc1NC(=O)Cc1nnc(SCC(=O)NC23CC4CC(CC(C4)C2)C3)n1C | inconclusive: 3.55 µM [inhibitor, full curve, poor fit] |
| CC(C)N(C(=O)COC(=O)CCC(=O)c1cccs1)c1ccccc1 | inconclusive: 126 µM [inhibitor, single point] |
| c1ccc(CNCCCN2CCCCC2)nc1 | inactive |
| COc1cc(OC)cc(-c2nc(-c3ccccc3OC)no2)c1 | inactive |
| Fc1ccc(-c2nc3ccc(Br)cn3c2Cc2cccc(F)c2)cc1 | inconclusive: 35.5 µM [inhibitor, partial curve, poor fit] |
| Cc1nc2cccnc2n1CC1CCCN(S(=O)(=O)c2ccc(F)cc2)C1 (stereo not given) | inactive |
| Cc1nc2c(C(=O)NC3CCCC3)cnn2c(C)c1Cc1ccccc1Cl | inactive |
| N#C/C(=C\c1c(N(Cc2ccccc2)Cc2ccccc2)nc2ccccn2c1=O)C(N)=O | inconclusive: 100 µM [inhibitor, single point] |
| CCc1ccc(-n2c(SCc3ccccc3F)nc3[nH]ncc3c2=O)cc1 | inconclusive: 56.2 µM [inhibitor, partial curve, poor fit] |
| CCn1cc(/C=C(\NC(=O)c2cc(OC)c(OC)c(OC)c2)C(=O)N2CCOCC2)c2ccccc21 | inconclusive: 3.16 µM [inhibitor, full curve, poor fit] |
| Fc1ccc(C2=NN(c3ccccc3)C(c3ccco3)C2)cc1 (stereo not given) | inconclusive: 44.7 µM [inhibitor, partial curve, poor fit] |
| CSc1cccc(NC(=O)N[C@H]2CCN(C(=O)CC(C)(C)C)[C@@H]2C(=O)N[C@H](Cc2ccccc2)C(N)=O)c1 | inactive |
| Oc1ccc(COCc2ccccc2)c2cccnc12 | inconclusive: 14.1 µM [inhibitor, full curve] |
| Cc1ccc(S(=O)(=O)N2CC3(O)CN(C(=O)OC(C)C)N(C(=O)OC(C)C)CC3(OC(=O)NCc3ccccc3F)C2)cc1 (stereo not given) | inconclusive: 100 µM [inhibitor, single point] |
| Cc1cc(C)c2c(=O)n(CC(=O)Nc3ccc(C)c(F)c3)c(=O)n(-c3ccccc3)c2n1 | inconclusive: 79.4 µM [inhibitor, partial curve, poor fit] |
| Cc1ccc(N=C2NC(=O)/C(=C/c3cn(C)c4ccccc34)S2)cc1C | inactive |

Ordered by length of the SMILES (smallest number first): some entries from above.

| Structure (SMILES) | Potency |
| --- | --- |
| Oc1ccc(COCc2ccccc2)c2cccnc12 | inconclusive: 14.1 µM [inhibitor, full curve] |
| COc1cc(OC)cc(-c2nc(-c3ccccc3OC)no2)c1 | inactive |
| Fc1ccc(C2=NN(c3ccccc3)C(c3ccco3)C2)cc1 (stereo not given) | inconclusive: 44.7 µM [inhibitor, partial curve, poor fit] |
| Fc1ccc(-c2nc3ccc(Br)cn3c2Cc2cccc(F)c2)cc1 | inconclusive: 35.5 µM [inhibitor, partial curve, poor fit] |
| CC(C)N(C(=O)COC(=O)CCC(=O)c1cccs1)c1ccccc1 | inconclusive: 126 µM [inhibitor, single point] |
| Cc1nc2c(C(=O)NC3CCCC3)cnn2c(C)c1Cc1ccccc1Cl | inactive |
| CCc1ccc(-n2c(SCc3ccccc3F)nc3[nH]ncc3c2=O)cc1 | inconclusive: 56.2 µM [inhibitor, partial curve, poor fit] |
| CCn1c(Cn2nnc(-c3ccccc3)n2)nnc1SCC(=O)N1CCOCC1 | inactive |
| Cc1ccc(N=C2NC(=O)/C(=C/c3cn(C)c4ccccc34)S2)cc1C | inactive |
| CCN(CC)C(=O)c1ccc2c(=O)n(Cc3cccc(Br)c3)c(=S)[nH]c2c1 | inactive |
| N#C/C(=C\c1c(N(Cc2ccccc2)Cc2ccccc2)nc2ccccn2c1=O)C(N)=O | inconclusive: 100 µM [inhibitor, single point] |
| CCOc1ccc2nc(S(=O)(=O)NC(=O)C3(C)CCN3C(=O)c3cccc(F)c3)sc2c1 (stereo not given) | inconclusive: 2.82 µM [inhibitor, full curve, poor fit] |
| CSc1cccc(NC(=O)N[C@H]2CCN(C(=O)CC(C)(C)C)[C@@H]2C(=O)N[C@H](Cc2ccccc2)C(N)=O)c1 | inactive |

Continuation:

| Structure (SMILES) | Potency |
| --- | --- |
| c1cnc2cc3c(cc2n1)C1CNCC3C1 | inconclusive: 19.3 µM [inhibitor, partial curve] |
| CC1Cc2ccccc2C(CCc2ccccc2)=N1 (stereo not given) | inactive |
| CCCCn1c(N)c(N(CC(C)C)C(=O)c2ccc(-c3ccc(C(C)=O)cc3)o2)c(=O)[nH]c1=O | inconclusive: 112 µM [inhibitor, single point] |
| O=C1CC(c2cccc(O)c2)c2ncn(-c3ccccc3F)c2N1 (stereo not given) | inconclusive: 31.6 µM [inhibitor, partial curve] |
| O=C(/C=C/c1ccc(O)c(O)c1)c1ccc(O)cc1O | active: 8.91 µM |
| COc1ccc(Cl)cc1CN1CCOCC1 | inconclusive: 112 µM [inhibitor, single point] |
| c1ccc(-c2cnc3n[nH]c(-c4ccccc4)c3n2)cc1 | inconclusive: 141 µM [inhibitor, partial curve, poor fit] |
| CCOc1cc(-c2sc(Nc3cc(C)ccc3OC)n[n+]2-c2ccccc2)ccc1OC | inconclusive: 35.5 µM [inhibitor, partial curve, poor fit] |
| NC(=S)NN=C1CCCCCCCCC1 | inconclusive: 50.1 µM [inhibitor, partial curve, poor fit] |
| CCc1nc(SCC(=O)c2ccccc2)c2ccccc2n1 | inconclusive: 20 µM [inhibitor, full curve, poor fit] |
| COc1ccccc1NC(=O)c1oc2ccccc2c1NC(=O)c1cc(OC)c(OC)c(OC)c1 | inactive |
| COc1ccc(Cc2nnc(SCC(=O)c3ccc(Cl)cc3)n2CC(C)C)cc1 | inconclusive: 35.5 µM [inhibitor, partial curve, poor fit] |
| O=C(O)CCCN(Cc1cccc(Br)c1)S(=O)(=O)c1ccc(Br)cc1 | inactive |
| CCCCC(=O)Nc1cc(OCC)c(NC(=O)c2ccccc2[N+](=O)[O-])cc1OCC | inactive |
| CCCn1nc(C(=O)OCCO)c2ccccc2c1=O | inconclusive: 35.5 µM [inhibitor, single point] |
| Cc1ccc2c(CSc3nnnn3C3CC3)cc(=O)oc2c1 | inconclusive: 39.8 µM [inhibitor, partial curve, poor fit] |
| O=C(NCc1ccc(F)cc1)c1ccc(CSCc2cccc(Cl)c2)o1 | inconclusive: 50.1 µM [inhibitor, partial curve, poor fit] |
| COc1cc(-c2nc3n(n2)C(c2ccccc2)C2=C(CCCC2=O)N3)cc(OC)c1OC (stereo not given) | inconclusive: 126 µM [inhibitor, partial curve, poor fit] |
| CN(C)CCOc1ccc(-c2nc(-c3ccc4c(c3)CCC4=NO)c(-c3ccncc3)[nH]2)cc1 | inconclusive: 0.968 µM [inhibitor, full curve, poor fit] |
| CCCCn1c(-n2nc(CC)cc2CC)nc2c1c(=O)n(CC(N)=O)c(=O)n2C | inactive |
| CCc1nc2c(OCc3cccc(Cl)c3)cccn2c1N(C)C(=O)CC(C)C | inactive |
| COc1ccc(-c2nc(N3CCOCC3)cc3c2CN(Cc2cnn(C)c2)C3=O)cc1OC | inconclusive: 56.2 µM [inhibitor, partial curve, poor fit] |

| Structure (SMILES) | Potency |
| --- | --- |
| Cc1ccccc1Cn1c(C(=O)O)c(CNCc2cccc(F)c2)c2ccccc21 | inconclusive: 112 µM [inhibitor, partial curve, poor fit] |
| COc1cccc(-c2cncnc2NCc2ccccc2)c1 | inconclusive: 5.62 µM [inhibitor, full curve, poor fit] |
| COCCNC(=O)c1cnn(-c2ccc(C)cc2C)c1C1CCN(C(=O)OC(C)(C)C)CC1 | inactive |
| CCOc1ccc(C(c2c(NC(=O)c3ccco3)sc(C)c2C)N2CCOCC2)cc1 (stereo not given) | inconclusive: 5.62 µM [inhibitor, full curve, poor fit] |
| Cc1ccc(NC(=O)c2ccc(Cl)c(S(=O)(=O)N3CCCCCC3)c2)nc1 | inactive |
| O=C(/C=C/c1cnc2ccccc2n1)NCc1ccccc1 | inconclusive: 50.1 µM [inhibitor, partial curve, poor fit] |
| CN1CCN(C(=S)NC(=O)/C=C/c2ccccc2)CC1 | inconclusive: 8.91 µM [inhibitor, partial curve, poor fit] |
| CCOc1ccc(C(=O)CCC(=O)N2CCN(c3ccc(O)cc3)CC2)cc1 | inconclusive: 25.1 µM [inhibitor, partial curve, poor fit] |
| Cc1nc2c(OCc3ccc(Cl)cc3Cl)cccn2c1N(C)CC1CC1 | inconclusive: 44.7 µM [inhibitor, partial curve, poor fit] |
| Cc1ccc(-n2ncc3c(=O)n(-c4ccc(C)c(C)c4)c(-c4ccco4)nc32)cc1 | inconclusive: 25.1 µM [inhibitor, partial curve, poor fit] |
| N#CC1=C(N)Oc2c(ccc3cccnc23)C1c1cccnc1 (stereo not given) | inconclusive: 31.6 µM [inhibitor, partial curve, poor fit] |
| CCc1nc(-c2c3n(c(=O)n(CC(=O)Nc4ccccc4OC)c2=O)CCCC3)no1 | inactive |
| CCCCn1c(=O)[nH]c(=O)c2c1nc(CN1CCN(S(=O)(=O)c3ccc(C)cc3)CC1)n2C | inconclusive: 126 µM [inhibitor, single point] |
| COc1ccc(CNc2cccc3[nH]c(C(F)(F)F)nc23)cc1OC | inconclusive: 5.62 µM [inhibitor, full curve, poor fit] |
| O=C1CC2(CCN(C(=O)c3ccccc3)C2)Nc2ccccc2N1 (stereo not given) | inconclusive: 56.2 µM [inhibitor, partial curve, poor fit] |
| Oc1c(Br)cc(Br)cc1CNc1nccs1 | inactive |
| O=C(NC1CCCc2c1cnn2-c1ccc(F)cc1F)c1csnn1 (stereo not given) | inconclusive: 50.1 µM [inhibitor, partial curve, poor fit] |
| O=C1CCN(C(=O)c2ccccc2)CCCC(C(=O)NCCCN2CCCC2)CCN1 (stereo not given) | inactive |
| S=c1[nH]nc(C23CC4CC(CC(C4)C2)C3)n1Cc1ccco1 | inconclusive: 79.4 µM [inhibitor, partial curve, poor fit] |
| Cc1nc(C(=O)Nc2nc(C(C)(C)C)cs2)nn1-c1ccc(Cl)cc1 | inactive |
| CCN(CC)CCNC(=O)C12CC3CC(C)(CC(C)(C3)C1)C2 | inconclusive: 44.7 µM [inhibitor, partial curve, poor fit] |
